Columns and labels:
[1] = water fastness of image printed on paper with an ink containing the dye; details: for water fastness of printed image: 3 parts compound in water (92.5 parts) and diethylene glycol (7.5 parts)
[2] = shade, bronzing and optical density of image printed on paper with an ink containing the dye
[3] = acid, neutral or alkaline paper, thermal ink jet printing machine, ammonium salt
[4] = plain paper, thermal ink jet, 3 parts compound in water (92.5 parts) and diethylene glycol (7.5 parts)
[5] = plain paper, thermal ink jet, ink composition not stated

SMILES | water fastness of printed image ([1]; plain paper, thermal ink jet) | shade of printed image [2, 4] | other results
O=C(O)c1ccc(Nc2ccc3cc(S(=O)(=O)O)c(N=Nc4ccc(N=Nc5cccc(C(=O)O)c5)c5ccccc45)c(O)c3c2)cc1 [Example 1] | – | – | resistance to water of printed image [1, 3]: very high resistance to water; shade of printed image [2, 3]: deep black shade
O=C(O)c1ccc(Nc2ccc3cc(S(=O)(=O)O)c(N=Nc4ccc(N=Nc5cccc(C(=O)O)c5)c5ccc(S(=O)(=O)O)cc45)c(O)c3c2)cc1 [Example 4] | very high water fastness | deep neutral black shade | bronzing of printed image [2, 4]: no bronzing
O=C(O)c1cccc(N=Nc2ccc(N=Nc3c(S(=O)(=O)O)cc4ccc(Nc5cccc(C(=O)O)c5)cc4c3O)c3cc(S(=O)(=O)O)ccc23)c1 [Example 6] | very high water fastness | attractive deep black shade | –
O=C(O)c1ccc(N=Nc2ccc(N=Nc3c(S(=O)(=O)O)cc4ccc(Nc5cccc(C(=O)O)c5)cc4c3O)c3ccccc23)cc1 [Example 3] | very high water fastness | attractive deep black shade | –
Cc1ccc(C(=O)O)cc1N=Nc1ccc(N=Nc2c(S(=O)(=O)O)cc3ccc(Nc4ccc(C(=O)O)cc4)cc3c2O)c2ccccc12 [Example 7] | – | – | water fastness / resistance to water of printed image [1, 5]: very high water fastness; shade of printed image [2, 5]: deep black shade

Reference: patent publication US5281263A, “Azo dyes containing a carboxy group” (Imperial Chemical Industries PLC, priority 1991, dated 1994)
